# Source: PubChem BioAssay AID540256 (National Center for Advancing Translational Sciences (NCATS), 2011)
# Screen size: about 300,000 compounds; about 3,700 (1.2%) were called active. Inconclusive means that the source gave no clear call. Such entries were picked first, then a sample of the others. Calls come from the whole dose curve; tested in HEK293 cells. A potency beside an inconclusive call is a rough fit, not a confirmed value.
# Test: qHTS for Inhibitors of binding or entry into cells for Lassa Virus; note: nearly all actives have a fitted effect of over 50% in size
# Details: Lassa virus pseudotype entry inhibition, cell reporter; activity change, negative = inhibition: at 37.9 µM (top of the series) unless noted
# % is set by controls: 0 for no effect and ±100 for the full control effect; potency is the fitted concentration of half-maximal effect.
SMILES,Potency,"activity change, negative = inhibition"
CCOc1ccc(C(=O)c2cn(Cc3ccc(OC)cc3)c3cc(OC)c(OC)cc3c2=O)cc1,"inconclusive: 15.8 µM [inhibitor, single point]",
CCCCNC(=S)N(C)/N=C/c1c(F)cccc1F,,inactive: -19%
CO/N=C(/CS(=O)Cc1ccc(Cl)cc1)c1ccc(Cl)cc1 (stereo unspecified),"inconclusive: 11.6 µM [inhibitor, partial curve, poor fit]",
COc1cccc(C(=O)Nc2ccc(NC(=O)C3CC=CCC3C(=O)O)cc2)c1 (stereo unspecified),,inactive: 11.8%
Cn1c(=O)[nH]c(=O)c2c1nc(N1CCCCCC1)n2CCCSc1nc2ccccc2o1,"inconclusive: 10 µM [inhibitor, partial curve]",
Cc1nc2ccccc2n1C(=O)c1ccccc1[N+](=O)[O-],,inactive: 1.2%
C[C@H](CO)NS(=O)(=O)c1cc(Cl)ccc1F,,inactive: 4.61% [at 46.1 µM]
Cn1ccc(NC(=O)Nc2ccc(Cl)cc2Cl)n1,"inconclusive: 0.891 µM [activator, single point]",
Cc1ccccc1NC(=O)CC1S/C(=N/c2nccs2)N(C)C1=O (stereo unspecified),"inconclusive: 4.61 µM [activator, partial curve, poor fit]",
COc1ccc(-c2ccc(SCC(=O)NC3CCCC3)nn2)cc1OC,"inconclusive: 10 µM [inhibitor, partial curve, poor fit]",
Cn1c(=O)c2c(-c3ccc(OC(F)F)cc3)cc(-c3ccccc3)nc2n(C)c1=O,"inconclusive: 10 µM [activator, single point]",
CC(=O)N1CCCc2cc(S(=O)(=O)N3CCCC(C(=O)Nc4cccc(F)c4)C3)ccc21 (stereo unspecified),"inconclusive: 3.55 µM [inhibitor, partial curve, poor fit]",
Cc1ccc2nc(/C(C#N)=C/c3ccccc3C(=O)O)[nH]c2c1,,inactive: 8.97% [at 46.1 µM]
Cc1cc(Cl)c2oc(C(=O)N3CCN(c4ccncc4)CC3)c(C)c2c1,"inconclusive: 8.91 µM [inhibitor, partial curve]",
CCC(=O)NC(=S)Nc1ccc(S(=O)(=O)NC2CCCCC2)cc1,,inactive: -8.44%
Cc1ccc(C2=Nc3ccccc3N(C(=O)c3ccccc3)C(C)C2)cc1 (stereo unspecified),"inconclusive: 29.1 µM [inhibitor, single point]",
O=C(Nc1nc2c(ccc3ccccc32)s1)c1ccco1,"inconclusive: 18.3 µM [inhibitor, single point]",
Clc1ccc(-c2nnc(Sc3nc4ccccc4o3)c3ccccc23)cc1,"inconclusive: 29.1 µM [inhibitor, single point]",
CN(C)c1ccc(C(CNS(=O)(=O)c2ccc(F)cc2)N2CCCC2)cc1 (stereo unspecified),"inconclusive: 3.55 µM [activator, single point]",
CCc1cccc(OCC(=O)Nc2ccc(S(=O)(=O)N3CCCC3)cc2)c1,,inactive: -29% [at 46.1 µM]
CCCCN(C)CCCNC(=O)CN1N=C(c2ccc(Cl)cc2)CCC1=O,"inconclusive: 15.8 µM [activator, single point]",
COc1ccccc1C(CNC(=O)c1ccc(C)c(S(=O)(=O)N2CCCCC2)c1)N1CCCC1 (stereo unspecified),,inactive: 21.2%

SMILES,Potency,"activity change, negative = inhibition"
Cc1ccc(S(=O)(=O)N2CCC(=O)N(C(COCc3cccc(C)c3)Cc3ccccc3)CC2)cc1 (stereo unspecified),active: 14.6 µM,
Cc1ccc(N(Cc2cc(=O)[nH]c3ccccc23)C(=O)CCl)c(C)c1,"inconclusive: 35.5 µM [inhibitor, single point]",
Fc1ccccc1-c1n[nH]c(=S)n1/N=C/c1c[nH]c2ccccc12,"inconclusive: 14.1 µM [inhibitor, partial curve, poor fit]",
CCc1nc(N=Nc2c(O)[nH]c3ccccc23)c2c3c(sc2n1)CCC3,,inactive: -0.944%
COC(=O)c1ccc(CN(c2ccc(OC)cc2)S(=O)(=O)c2ccccc2)cc1,"inconclusive: 15.8 µM [inhibitor, single point]",
COc1cc(CNC(C)(C)CO)cc(Br)c1OCc1ccccc1,"inconclusive: 25.1 µM [inhibitor, single point]",
Cc1ccc(-n2c(=O)cc(N3CCC(C)CC3)[nH]c2=O)cc1,"inconclusive: 29.1 µM [activator, single point]",
CCOc1cc(CNCCc2ccc(S(N)(=O)=O)cc2)ccc1OCc1ccc(Cl)cc1,"inconclusive: 14.1 µM [inhibitor, partial curve, poor fit]",
Cc1nnc(SCC(=O)Nc2cc(C(C)(C)C)nn2-c2ccccc2)s1,,inactive: 1.11%
Cc1nn(C)c(C(=O)N/N=C/c2cccc3ccccc23)c1Cl,"inconclusive: 1 µM [activator, full curve, poor fit]",
CC#CCC(CC#CC)c1nc2ccccc2c(=O)n1N,"inconclusive: 25.1 µM [activator, single point]",
CCOC(=O)c1cn(-c2c(Cl)cccc2Cl)c2cc(Cl)c([N+](=O)[O-])cc2c1=O,"inconclusive: 29.1 µM [inhibitor, partial curve, poor fit]",
C=CCn1c(SCC(=O)/C(C#N)=C(\C)N)nc2sc(C)c(C)c2c1=O,"inconclusive: 11.6 µM [inhibitor, partial curve, poor fit]",
O=C(CN1CCCCCC1)Nc1ccccc1,,inactive: 0.611% [at 46.1 µM]
CCc1nnc(NC(=O)c2cccc(C(=O)Nc3nnc(CC)s3)n2)s1,"inconclusive: 4.47 µM [inhibitor, full curve, poor fit]",
CC1(CC(=O)N/N=C/c2ccc(-c3ccc(C(=O)O)cc3)o2)OCCO1,,inactive: 0.171%
COc1cccc(N2CCN(CC(=O)NCc3ccccc3)CC2)c1,"inconclusive: 8.91 µM [inhibitor, partial curve, poor fit]",
C/C(=N\OC(=O)NC(C)C)c1sc(-c2ccccc2)nc1C,"inconclusive: 14.1 µM [inhibitor, single point]",
C[C@@H](C(=O)NCc1ccccc1)[C@@H]1C[C@@]1(C)[C@@H](NC(=O)OCc1ccccc1)c1ccccc1,active: 7.31 µM,
Nc1nc(N)c2nc(CNc3ccc(C(=O)NC(CCC(=O)O)C(=O)O)cc3)cnc2n1 (stereo unspecified),"inconclusive: 0.146 µM [activator, full curve, poor fit]",
COc1cccc(COc2cc3ccccc3nc2C)c1,"inconclusive: 20.6 µM [inhibitor, single point]",
Cc1ccccc1NC(=O)c1ccc(F)c(S(=O)(=O)N2CCc3ccccc3C2)c1,"inconclusive: 5.01 µM [activator, partial curve]",

# Exported bar-delimited: entries from further up
SMILES | Potency | activity change, negative = inhibition
Cc1ccc(S(=O)(=O)N2CCC(=O)N(C(COCc3cccc(C)c3)Cc3ccccc3)CC2)cc1 (stereo unspecified) | active: 14.6 µM | 
Cc1ccc(N(Cc2cc(=O)[nH]c3ccccc23)C(=O)CCl)c(C)c1 | inconclusive: 35.5 µM [inhibitor, single point] | 
CCOC(=O)c1cn(-c2c(Cl)cccc2Cl)c2cc(Cl)c([N+](=O)[O-])cc2c1=O | inconclusive: 29.1 µM [inhibitor, partial curve, poor fit] | 
COc1cccc(N2CCN(CC(=O)NCc3ccccc3)CC2)c1 | inconclusive: 8.91 µM [inhibitor, partial curve, poor fit] | 
Cc1ccccc1NC(=O)c1ccc(F)c(S(=O)(=O)N2CCc3ccccc3C2)c1 | inconclusive: 5.01 µM [activator, partial curve] | 

# The results go on.

SMILES,Potency,"activity change, negative = inhibition"
COc1ccc(OC)c(Nc2nc(-c3ccncc3)nc3ccccc23)c1,"inconclusive: 5.01 µM [inhibitor, full curve, poor fit]",
CCOC(=O)C1CCCN(CC(=O)NC2=Nc3ccccc3N=C(C)C2c2ccccc2)C1 (stereo unspecified),"inconclusive: 35.5 µM [inhibitor, single point]",
COc1ccccc1C(=O)Nc1onc(C)c1C#N,,inactive: 4.4%
Cc1c(NC(=O)C(F)(F)F)ccc2nc3c(=O)n(C)c(=O)n(C)c3nc12,"inconclusive: 20 µM [inhibitor, single point]",
CCc1ccccc1NC(=O)c1cnn(-c2ccc(F)cc2)c1C1CCNCC1,"inconclusive: 3.55 µM [activator, single point]",
COc1ccc(-c2cc(-c3ccc4c(c3)NC(=O)CO4)nc3c2COc2ccc(C)cc2-3)cc1,,inactive: 12.1% [at 46.1 µM]
O=S(=O)(c1ccccc1)N1CCN=C1SCc1ccc(Cl)c(Cl)c1,"inconclusive: 25.1 µM [inhibitor, single point]",
CCc1noc(C)c1C(=O)OCC(=O)NCc1ccc(Cl)cc1,,inactive: 29.8% [at 46.1 µM]
CCOC(=O)c1ccccc1NC(=O)c1nn(-c2ccc(C)cc2)c(=O)n(C)c1=O,"inconclusive: 3.16 µM [inhibitor, single point]",
CCc1ccc(S(=O)(=O)N2CCN(c3ccc(Cl)c(Cl)c3)CC2)cc1,"inconclusive: 5.01 µM [inhibitor, partial curve, poor fit]",
CCOC(=O)c1c(NC(=O)c2nn(C)cc2[N+](=O)[O-])sc(C)c1C,,inactive: 11.1%
CCOC(=O)CC(C)(C)/C(C)=N/Nc1ccc([N+](=O)[O-])cc1[N+](=O)[O-],"inconclusive: 12.6 µM [inhibitor, partial curve, poor fit]",
NS(=O)(=O)c1ccc(CCNc2nc3c(-c4cccc(F)c4)nnn3c3ccccc23)cc1,"inconclusive: 3.16 µM [inhibitor, single point]",
CN(C(=O)CN1CCN(c2ccccc2F)CC1)C1CCCc2ccccc21 (stereo unspecified),"inconclusive: 22.4 µM [inhibitor, partial curve, poor fit]",
Cc1ccccc1Cn1c(=O)n(CCC(=O)NCc2ccc3c(c2)OCO3)c(=O)c2ccccc21,,inactive: -17.5%
CCc1ccccc1NC(=O)Cn1nnc(C(=O)Nc2ccc(OC)c(OC)c2)c1N,"inconclusive: 11.2 µM [activator, partial curve, poor fit]",
Cc1cc(C)n2nc(C(=O)OCC(=O)Nc3ccc4c(c3)OCO4)nc2n1,"inconclusive: 1.26 µM [inhibitor, single point]",
O=C1CCCc2nc(N3CCN(C(c4ccccc4)c4ccccc4)CC3)ncc21,"inconclusive: 23.1 µM [inhibitor, single point]",
CC(C)(C)C(=O)Nc1ccc2nc(SCCOc3ccccc3Cl)sc2c1,"inconclusive: 0.562 µM [inhibitor, full curve, poor fit]",
O=C(OCC(=O)N1CCN(C(=O)c2ccco2)CC1)c1sc2ccccc2c1Cl,"inconclusive: 32.6 µM [inhibitor, single point]",
CCc1cc(C(=O)NCC(c2ccc(OC)cc2)N2CCOCC2)sc1C (stereo unspecified),,inactive: 22.8%
Nc1ccc(C(=O)Nc2ccc3c(O)cc(S(=O)(=O)O)cc3c2)cc1,"inconclusive: 3.98 µM [inhibitor, partial curve, poor fit]",
